# From paper PMC10583827 (RSC Medicinal Chemistry, 2023)
# Assay: Host macrophage cytotoxicity, resazurin assay
# Format: cell-based
# Conditions: human, PMA-differentiated THP-1 cells (macrophages)
compound,measurement,value
"O=C1OCCN1/N=C/c1ccc([N+](=O)[O-])o1 [FZD, furazolidone, reference compound]",IC50 at 72 h,> 100 µM
